According to patent publication US20060168698A1:
These are yes or no findings as the source states them, for the method shown. Binding seen in cells or lysates may run through a third protein. Some entries that bind do so weakly or less than the wild type.

Chains of the proteins cited; added tags and fusions are not shown. Lines headed by an entry give the natural chain unless they say otherwise; changes in a name come on top.
UniProt O81223: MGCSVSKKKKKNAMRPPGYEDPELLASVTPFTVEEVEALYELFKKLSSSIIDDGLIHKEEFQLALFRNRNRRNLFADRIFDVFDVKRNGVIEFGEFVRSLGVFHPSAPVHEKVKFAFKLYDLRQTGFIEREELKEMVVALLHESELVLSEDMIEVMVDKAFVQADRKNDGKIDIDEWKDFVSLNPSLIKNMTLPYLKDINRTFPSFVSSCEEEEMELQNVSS

Columns and labels:
[1] = molecular target: GST-SOS3 fusion protein (Arabidopsis thaliana) (UniProt O81223); experiment: GST-SOS3 pull-down on glutathione-Sepharose beads from plant extracts, anti-SOS2 immunoblot
[2] = molecular target: GST-SOS3 fusion protein (Arabidopsis thaliana) (UniProt O81223); experiment: GST-SOS3 pull-down from wild-type and WT/T/DSOS2 transgenic plant extracts, anti-SOS2 immunoblot
[3] = molecular target: GST-SOS3 fusion protein (Arabidopsis thaliana) (UniProt O81223); experiment: GST-SOS3 pull-down from sos2-2 and sos3-1 mutant and transgenic plant extracts, anti-SOS2 immunoblot

Measured: binding

B1: T/DSOS2 (SOS2 protein kinase with the Thr168-to-Asp change in the activation loop) (enzyme)
chain: MTKKMRRVGKYEVGRTIGEGTFAKVKFARNTDTGDNVAIKIMAKSTILKNRMVDQIKREISIMKIVRHPNIVRLYEVLASPSKIYIVLEFVTGGELFDRIVHKGRLEESESRKYFQQLVDAVAHCHCKGVYHRDLKPENLLLDTNGNLKVSDFGLSALPQEGVELLRDTCGTPNYVAPEVLSGQGYDGSAADIWSCGVILFVILAGYLPFSETDLPGLYRKINAAEFSCPPWFSAEVKFLIHRILDPNPKTRIQIQGIKKDPWFRLNYVPIRAREEEEVNLDDIRAVFDGIEGSYVAENVERNDEGPLMMNAFEMITLSQGLNLSALFDRRQDFVKRQTRFVSRREPSEIIANIEAVANSMGFKSHTRNFKTRLEGLSSIKAGQLAVVIEIYEVAPSLFMVDVRKAAGETLEYHKFYKKLCSKLENIIWRATEGIPKSEILRTITF
binds: all assays above

B2: SOS2 (native, wild-type SOS2 protein kinase) (enzyme)
chain: MTKKMRRVGKYEVGRTIGEGTFAKVKFARNTDTGDNVAIKIMAKSTILKNRMVDQIKREISIMKIVRHPNIVRLYEVLASPSKIYIVLEFVTGGELFDRIVHKGRLEESESRKYFQQLVDAVAHCHCKGVYHRDLKPENLLLDTNGNLKVSDFGLSALPQEGVELLRTTCGTPNYVAPEVLSGQGYDGSAADIWSCGVILFVILAGYLPFSETDLPGLYRKINAAEFSCPPWFSAEVKFLIHRILDPNPKTRIQIQGIKKDPWFRLNYVPIRAREEEEVNLDDIRAVFDGIEGSYVAENVERNDEGPLMMNAFEMITLSQGLNLSALFDRRQDFVKRQTRFVSRREPSEIIANIEAVANSMGFKSHTRNFKTRLEGLSSIKAGQLAVVIEIYEVAPSLFMVDVRKAAGETLEYHKFYKKLCSKLENIIWRATEGIPKSEILRTITF
binds: all assays above
